Patent US4190647A (Sloan-Kettering Institute for Cancer Research, priority 1979, dated 1980)
Strings that start with PEPTIDE1 are HELM notation: dots part the residues, brackets hold end groups and non-standard residues.

Assay: Boc solid-phase peptide synthesis; chloromethylated polystyrene divinyl benzene resin; dicyclohexyl carbodiimide; α-BOC-L-glutamine-O-nitrophenyl ester coupled directl
Details: whole synthesis, scale 2 mmol

## PEPTIDE1{Y.N.I.Q.K}$$$$V2.0
  final purity (method not given): 94%
